PubChem BioAssay AID504808 | Drosophila RNAi Screening Center, 2011
Screen: 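Chromatin factors that keep E2F targets switched off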 (primary screen). System: Drosophila S2 cells. Reagent: long dsRNA against Drosophila genes. Read-out: 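Dual luciferase plate measurements; E2F-specific signal taken as firefly over Renilla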. Direction: E2F firefly: higher = more E2F reporter activity; Renilla normaliser: higher = more normaliser reporter signal. Hit rule: 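Called active if the normalised E2F reporter went up by over 50%; the cutoff is arbitrary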.
The deposit covers about 21,000 reagents; this is a random part of those with a known target gene and a result. Of all reagents, 18 (0.084%) got an active call. 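Raw counts without plate normalisation, one of two replicates; the ratio scores behind the calls were not deposited.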 Names joined by + are all predicted targets of the reagent. Not given: the amount of reagent, the time to read-out.

predicted target,dsRNA,"E2F firefly, rep 1","Renilla normaliser, rep 1",Outcome
CG15880 (GeneID 33257),DRSC00474,1.70e5,6228,inactive
Lcp65Aa (GeneID 38709),DRSC11209,1.09e5,3989,inactive
CG33127 (GeneID 318893),DRSC00011,1.35e5,4798,inactive
NitFhit (GeneID 38029),DRSC08680,94031,4152,inactive
CG3746 (GeneID 37593),DRSC04412,1.08e5,4507,inactive
yki (GeneID 37851),DRSC04437,85695,3838,inactive
bnk (GeneID 43687),DRSC16912,1.26e5,6742,inactive
RpL22 (GeneID 31022),DRSC18707,1.17e5,5927,inactive
CG16995 (GeneID 33413),DRSC00480,1.59e5,6427,inactive
CG31191 (GeneID 42477),DRSC13455,88564,2686,inactive
CG31191 (GeneID 42477),DRSC15214,1.31e5,7351,inactive
CG31191 (GeneID 42477),DRSC15215,1.17e5,6099,inactive
CG8202 (GeneID 41043),DRSC16396,1.43e5,7257,inactive
nyo (GeneID 43716),DRSC15029,44852,3509,inactive
nyo (GeneID 43716),DRSC15030,44096,3979,inactive
CG15772 (GeneID 31498),DRSC18078,61007,4445,inactive
CG1946 (GeneID 35720),DRSC06804,1.55e5,5065,inactive
CG11425 (GeneID 40472),DRSC11657,1.32e5,5901,inactive
SmF (GeneID 36314),DRSC07397,66033,4219,inactive
retn (GeneID 45976),DRSC04679,1.02e5,4754,inactive
Drsl2 (GeneID 38408),DRSC08160,1.06e5,3772,inactive
Ama (GeneID 40831),DRSC12489,66641,3630,inactive
CG14131 (GeneID 39328),DRSC10135,1.07e5,7148,inactive
RpL40 (GeneID 33629),DRSC00782,1.07e5,141,inactive
miple1 (GeneID 38047),DRSC08722,1.02e5,3890,inactive
Obp56c (GeneID 170882),DRSC06552,1.55e5,4977,inactive
CG3337 (GeneID 42519),DRSC15478,44837,3830,inactive
CG43066 (GeneID 37129),DRSC06927,1.46e5,4659,inactive
Fer3HCH (GeneID 32260),DRSC19892,85534,4409,inactive
CG42808 + CG42807,DRSC06370,2981,189,inactive
CG42808 + CG42807,DRSC06966,1.04e5,4106,inactive
CG17598 (GeneID 33140),DRSC20636,1.63e5,5500,inactive
TMEM216 (GeneID 41035),DRSC16378,1.29e5,5716,inactive
CG4151 (GeneID 31465),DRSC18351,1.24e5,5213,inactive
Reps (GeneID 34542),DRSC02940,1.38e5,5096,inactive
Tes (GeneID 36965),DRSC06996,1.35e5,5806,inactive
Trpgamma (GeneID 34991),DRSC03626,91779,4326,inactive
Ir48a (GeneID 3772197),DRSC05301,1.29e5,4601,inactive
CG1523 (GeneID 43400),DRSC15033,2159,876,inactive
kermit (GeneID 46027),DRSC06074,3237,202,inactive
Aatf (GeneID 33943),DRSC02131,1.55e5,5684,inactive
Ugt36D1 (GeneID 35138),DRSC02600,91259,4101,inactive
Cpr47Ed (GeneID 36192),DRSC07331,1.16e5,4089,inactive
Orcokinin (GeneID 37806),DRSC04202,1.05e5,4207,inactive

12 entries from above, set out differently:
predicted target | dsRNA | E2F firefly, rep 1 | Renilla normaliser, rep 1 | Outcome
CG8202 (GeneID 41043) | DRSC16396 | 1.43e5 | 7257 | inactive
nyo (GeneID 43716) | DRSC15029 | 44852 | 3509 | inactive
nyo (GeneID 43716) | DRSC15030 | 44096 | 3979 | inactive
CG15772 (GeneID 31498) | DRSC18078 | 61007 | 4445 | inactive
CG1946 (GeneID 35720) | DRSC06804 | 1.55e5 | 5065 | inactive
CG11425 (GeneID 40472) | DRSC11657 | 1.32e5 | 5901 | inactive
SmF (GeneID 36314) | DRSC07397 | 66033 | 4219 | inactive
retn (GeneID 45976) | DRSC04679 | 1.02e5 | 4754 | inactive
Drsl2 (GeneID 38408) | DRSC08160 | 1.06e5 | 3772 | inactive
Ama (GeneID 40831) | DRSC12489 | 66641 | 3630 | inactive
CG14131 (GeneID 39328) | DRSC10135 | 1.07e5 | 7148 | inactive
RpL40 (GeneID 33629) | DRSC00782 | 1.07e5 | 141 | inactive

The list goes on:
predicted target,dsRNA,"E2F firefly, rep 1","Renilla normaliser, rep 1",Outcome
mtgo (GeneID 34987),DRSC02245,96692,4089,inactive
mtgo (GeneID 34987),DRSC02246,73035,3324,inactive
mtgo (GeneID 34987),DRSC02769,87968,3680,inactive
rod (GeneID 43719),DRSC17047,59174,5063,inactive
Ctu2 (GeneID 35234),DRSC02024,72087,5081,inactive
Serinc (GeneID 39827),DRSC11296,79960,3964,inactive
CG32195 (GeneID 317907),DRSC09533,1.36e5,4140,inactive
bisc (GeneID 37443),DRSC04083,76982,3446,inactive
Doa (GeneID 43415),DRSC13892,76866,2229,inactive
Doa (GeneID 43415),DRSC13893,82417,2498,inactive
Doa (GeneID 43415),DRSC13895,92397,3112,inactive
Doa (GeneID 43415),DRSC13896,86421,2485,inactive
Doa (GeneID 43415),DRSC13897,89145,2448,inactive
Doa (GeneID 43415),DRSC16650,2029,1016,inactive
CG8950 (GeneID 36921),DRSC07300,63603,2635,inactive
CG2616 (GeneID 40915),DRSC15440,1.41e5,6392,inactive
wa-cup (GeneID 40892),DRSC12511,1.35e5,6887,inactive
CG1371 (GeneID 36053),DRSC06409,2796,192,inactive
CG13442 (GeneID 37349),DRSC06402,1.08e5,4733,inactive
CG14817 (GeneID 31145),DRSC18547,1.20e5,5495,inactive
CG7326 (GeneID 32882),DRSC20037,1.44e5,5816,inactive
CG42260 (GeneID 37614),DRSC03953,1.35e5,4856,inactive
CG42260 (GeneID 37614),DRSC04172,98027,3959,inactive
CG42260 (GeneID 37614),DRSC04385,97769,3721,inactive
Rad51D (GeneID 35937),DRSC06840,1.37e5,4730,inactive
CG34038 (GeneID 3885596),DRSC04039,1.38e5,5678,inactive
CG18371 (GeneID 36556),DRSC06733,1.04e5,4397,inactive
CG30016 (GeneID 246393),DRSC05242,1.40e5,4734,inactive
CG1571 (GeneID 31725),DRSC18068,1.49e5,7393,inactive
CG1116 (GeneID 40622),DRSC12166,1.36e5,5803,inactive
pita (GeneID 37730),DRSC04006,1.38e5,5668,inactive
pita (GeneID 37730),DRSC04435,70348,3286,inactive
Hr78 (GeneID 40378),DRSC11866,71125,3091,inactive
CG16781 (GeneID 31315),DRSC18117,73478,4248,inactive
Lk6 (GeneID 44672),DRSC12867,80770,2860,inactive
Lk6 (GeneID 44672),DRSC16728,65192,3270,inactive
mfrn (GeneID 43353),DRSC15687,1.20e5,6027,inactive
dpr8 (GeneID 32387),DRSC19406,2.34e5,5878,inactive
dpr8 (GeneID 32387),DRSC19600,1.17e5,5153,inactive
dpr8 (GeneID 32387),DRSC19938,1.57e5,6348,inactive
dpr8 (GeneID 32387),DRSC19939,1.55e5,6391,inactive
